This note sets out measurements from PMC10681309.

Results are given in words; binding and its absence hold for the method and conditions named. Binding seen in cells or lysates may run through a third protein. Some binding calls cover weakened binding; strength is not graded here. For part of these data: Sequences can lack the tags named with a protein.

The target in one assay is T1, HA-TRIM4 (UniProt Q9C037).
T1 sequence: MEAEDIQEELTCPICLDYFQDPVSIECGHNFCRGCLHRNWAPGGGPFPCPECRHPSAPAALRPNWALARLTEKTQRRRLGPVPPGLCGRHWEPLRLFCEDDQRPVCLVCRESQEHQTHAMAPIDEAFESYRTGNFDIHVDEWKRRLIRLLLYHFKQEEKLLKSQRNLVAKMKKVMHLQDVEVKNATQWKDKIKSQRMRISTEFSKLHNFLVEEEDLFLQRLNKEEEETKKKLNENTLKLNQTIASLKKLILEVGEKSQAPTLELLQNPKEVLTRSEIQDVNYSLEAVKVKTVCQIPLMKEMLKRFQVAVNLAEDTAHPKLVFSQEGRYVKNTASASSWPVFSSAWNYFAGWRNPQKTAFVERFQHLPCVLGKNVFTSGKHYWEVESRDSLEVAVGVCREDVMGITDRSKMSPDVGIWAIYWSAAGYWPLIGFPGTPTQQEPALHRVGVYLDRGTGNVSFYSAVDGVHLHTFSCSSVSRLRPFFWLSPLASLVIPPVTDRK
In words: co-IP.

In another assay the target is T2, GFP-MDA5 (UniProt Q9BYX4).
T2 sequence: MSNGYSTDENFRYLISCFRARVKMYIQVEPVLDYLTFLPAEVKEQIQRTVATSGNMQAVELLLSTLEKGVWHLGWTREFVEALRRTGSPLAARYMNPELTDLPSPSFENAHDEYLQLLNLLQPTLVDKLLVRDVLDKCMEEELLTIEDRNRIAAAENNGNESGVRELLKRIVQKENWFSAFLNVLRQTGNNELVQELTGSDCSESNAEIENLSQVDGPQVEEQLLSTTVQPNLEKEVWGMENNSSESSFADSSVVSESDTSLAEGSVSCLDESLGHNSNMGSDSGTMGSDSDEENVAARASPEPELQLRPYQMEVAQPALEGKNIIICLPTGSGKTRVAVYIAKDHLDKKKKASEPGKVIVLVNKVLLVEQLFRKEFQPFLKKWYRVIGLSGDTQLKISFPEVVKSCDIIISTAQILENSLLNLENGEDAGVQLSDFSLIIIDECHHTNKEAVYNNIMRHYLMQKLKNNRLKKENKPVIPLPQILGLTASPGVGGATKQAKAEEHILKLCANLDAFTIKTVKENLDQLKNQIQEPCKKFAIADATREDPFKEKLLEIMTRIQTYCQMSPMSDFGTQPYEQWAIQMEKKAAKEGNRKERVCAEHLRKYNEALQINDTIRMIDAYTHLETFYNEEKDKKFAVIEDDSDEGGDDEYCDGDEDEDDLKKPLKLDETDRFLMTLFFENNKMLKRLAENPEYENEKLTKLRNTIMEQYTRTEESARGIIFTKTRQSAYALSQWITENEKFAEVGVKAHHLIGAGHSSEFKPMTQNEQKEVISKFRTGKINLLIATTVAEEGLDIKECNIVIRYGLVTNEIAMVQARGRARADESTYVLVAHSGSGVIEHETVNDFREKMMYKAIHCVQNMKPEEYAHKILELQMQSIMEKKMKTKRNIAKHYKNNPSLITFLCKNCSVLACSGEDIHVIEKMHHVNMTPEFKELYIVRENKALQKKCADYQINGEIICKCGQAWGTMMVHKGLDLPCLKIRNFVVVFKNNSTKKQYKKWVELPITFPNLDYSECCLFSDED
In words: co-IP.

For assay [1], the target named is T3, endogenous MDA5 (human (endogenous in HEK293T)) (UniProt Q9BYX4).
T3 sequence: T2 sequence
In words: cross-linking + co-IP.

Take “Flag-nsp8 (SARS-CoV-2 nonstructural protein 8) (from UniProt P0DTD1 3943-4140)”: the binding entry with HA-TRIM4 and in the assay with GFP-MDA5 was “binds” throughout.
Regarding “nsp8 expressed from the Spike-deleted SARS-CoV-2 replicon (from UniProt P0DTD1 3943-4140)”, in assay [1], the binding entry was “binds”.
